The record followed here is the supplement of paper PMC10849652.

Amino acid sequences for entries named in this document (tags omitted). A change or cut given only in a name is not applied to a line headed by its entry.
UniProt O60739, whole entry, looked up: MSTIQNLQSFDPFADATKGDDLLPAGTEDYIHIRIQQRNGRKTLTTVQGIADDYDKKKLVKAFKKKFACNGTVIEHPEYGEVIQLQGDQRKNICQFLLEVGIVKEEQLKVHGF
UniProt Q5NDL2: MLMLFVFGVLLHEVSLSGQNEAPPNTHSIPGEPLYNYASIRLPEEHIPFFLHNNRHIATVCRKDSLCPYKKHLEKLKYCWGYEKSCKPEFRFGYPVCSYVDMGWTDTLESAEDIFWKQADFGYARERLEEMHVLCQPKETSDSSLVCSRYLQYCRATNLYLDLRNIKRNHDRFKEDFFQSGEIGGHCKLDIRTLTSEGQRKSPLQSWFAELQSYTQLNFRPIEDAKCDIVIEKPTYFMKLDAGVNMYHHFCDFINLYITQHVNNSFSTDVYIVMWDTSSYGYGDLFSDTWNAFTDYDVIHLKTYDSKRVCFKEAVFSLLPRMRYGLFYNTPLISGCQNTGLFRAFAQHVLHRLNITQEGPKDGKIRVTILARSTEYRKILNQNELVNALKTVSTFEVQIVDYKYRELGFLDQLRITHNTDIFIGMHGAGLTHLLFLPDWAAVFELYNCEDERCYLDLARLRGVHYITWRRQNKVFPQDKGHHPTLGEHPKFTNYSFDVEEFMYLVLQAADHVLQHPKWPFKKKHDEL
UniProt P26641, whole entry, looked up: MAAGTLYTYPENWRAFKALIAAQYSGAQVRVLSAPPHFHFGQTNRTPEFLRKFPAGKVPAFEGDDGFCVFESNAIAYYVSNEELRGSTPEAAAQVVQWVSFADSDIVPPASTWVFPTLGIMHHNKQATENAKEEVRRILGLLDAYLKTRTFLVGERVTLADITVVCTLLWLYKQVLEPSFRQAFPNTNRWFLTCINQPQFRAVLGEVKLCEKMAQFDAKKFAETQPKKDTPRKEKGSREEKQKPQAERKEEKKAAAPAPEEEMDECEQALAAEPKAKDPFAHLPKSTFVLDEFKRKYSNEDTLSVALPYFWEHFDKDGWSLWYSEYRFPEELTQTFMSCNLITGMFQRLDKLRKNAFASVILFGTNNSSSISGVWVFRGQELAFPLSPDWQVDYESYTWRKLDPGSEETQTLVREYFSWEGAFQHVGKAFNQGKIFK
UniProt O60573: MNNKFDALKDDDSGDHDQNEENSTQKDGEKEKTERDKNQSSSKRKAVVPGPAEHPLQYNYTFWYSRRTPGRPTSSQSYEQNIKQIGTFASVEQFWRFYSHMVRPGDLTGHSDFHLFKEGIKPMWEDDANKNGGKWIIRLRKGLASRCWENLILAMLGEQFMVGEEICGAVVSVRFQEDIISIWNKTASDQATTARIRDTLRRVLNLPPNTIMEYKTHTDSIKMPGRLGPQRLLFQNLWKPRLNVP
UniProt O75071: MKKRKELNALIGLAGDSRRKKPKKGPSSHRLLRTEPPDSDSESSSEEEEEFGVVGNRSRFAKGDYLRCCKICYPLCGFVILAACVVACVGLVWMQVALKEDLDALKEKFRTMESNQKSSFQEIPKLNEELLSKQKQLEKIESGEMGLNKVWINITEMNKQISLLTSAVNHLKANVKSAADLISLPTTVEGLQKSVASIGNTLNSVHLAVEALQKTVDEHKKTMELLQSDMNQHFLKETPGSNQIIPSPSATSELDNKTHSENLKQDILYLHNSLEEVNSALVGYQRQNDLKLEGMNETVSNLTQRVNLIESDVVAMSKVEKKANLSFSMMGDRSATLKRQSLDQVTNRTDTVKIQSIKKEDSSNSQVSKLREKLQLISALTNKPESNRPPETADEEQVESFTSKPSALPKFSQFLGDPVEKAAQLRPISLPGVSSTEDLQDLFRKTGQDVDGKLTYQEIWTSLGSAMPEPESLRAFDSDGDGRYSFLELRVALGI
UniProt Q9GZT9: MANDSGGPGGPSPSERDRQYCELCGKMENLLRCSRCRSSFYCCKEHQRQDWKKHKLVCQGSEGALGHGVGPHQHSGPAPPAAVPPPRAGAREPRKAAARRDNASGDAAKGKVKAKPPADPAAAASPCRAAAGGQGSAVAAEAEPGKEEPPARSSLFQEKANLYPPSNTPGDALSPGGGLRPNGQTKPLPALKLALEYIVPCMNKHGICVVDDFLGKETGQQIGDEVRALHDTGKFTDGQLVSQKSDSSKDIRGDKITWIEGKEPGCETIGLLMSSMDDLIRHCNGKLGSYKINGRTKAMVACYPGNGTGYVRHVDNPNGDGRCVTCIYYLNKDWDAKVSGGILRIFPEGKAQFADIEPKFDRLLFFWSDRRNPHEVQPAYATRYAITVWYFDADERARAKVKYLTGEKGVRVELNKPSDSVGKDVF
UniProt O75354: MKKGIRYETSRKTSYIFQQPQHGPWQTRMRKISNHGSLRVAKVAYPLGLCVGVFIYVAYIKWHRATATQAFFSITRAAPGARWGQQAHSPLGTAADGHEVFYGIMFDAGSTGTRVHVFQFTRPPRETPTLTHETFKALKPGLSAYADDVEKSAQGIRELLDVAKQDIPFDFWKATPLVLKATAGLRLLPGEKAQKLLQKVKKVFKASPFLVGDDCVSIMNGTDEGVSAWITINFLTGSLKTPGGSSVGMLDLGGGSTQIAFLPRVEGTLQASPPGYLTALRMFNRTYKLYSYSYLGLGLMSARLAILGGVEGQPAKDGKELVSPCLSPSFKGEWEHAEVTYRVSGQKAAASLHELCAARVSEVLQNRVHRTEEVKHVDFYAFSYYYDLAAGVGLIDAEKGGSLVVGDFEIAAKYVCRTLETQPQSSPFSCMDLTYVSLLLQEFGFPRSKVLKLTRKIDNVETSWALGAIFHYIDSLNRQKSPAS
UniProt Q12805: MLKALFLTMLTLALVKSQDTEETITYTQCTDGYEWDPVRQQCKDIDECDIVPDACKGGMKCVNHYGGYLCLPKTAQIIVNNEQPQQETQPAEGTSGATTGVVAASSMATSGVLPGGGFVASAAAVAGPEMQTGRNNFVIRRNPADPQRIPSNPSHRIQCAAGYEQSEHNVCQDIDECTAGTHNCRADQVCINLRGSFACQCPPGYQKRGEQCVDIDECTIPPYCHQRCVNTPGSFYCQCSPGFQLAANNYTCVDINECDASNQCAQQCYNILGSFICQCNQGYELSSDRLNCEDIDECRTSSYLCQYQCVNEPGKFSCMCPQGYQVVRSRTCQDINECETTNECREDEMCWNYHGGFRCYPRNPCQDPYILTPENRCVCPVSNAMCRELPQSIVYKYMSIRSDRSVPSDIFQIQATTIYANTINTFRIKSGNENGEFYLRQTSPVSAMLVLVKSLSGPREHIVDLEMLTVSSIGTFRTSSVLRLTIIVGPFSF
UniProt Q7Z2Z2: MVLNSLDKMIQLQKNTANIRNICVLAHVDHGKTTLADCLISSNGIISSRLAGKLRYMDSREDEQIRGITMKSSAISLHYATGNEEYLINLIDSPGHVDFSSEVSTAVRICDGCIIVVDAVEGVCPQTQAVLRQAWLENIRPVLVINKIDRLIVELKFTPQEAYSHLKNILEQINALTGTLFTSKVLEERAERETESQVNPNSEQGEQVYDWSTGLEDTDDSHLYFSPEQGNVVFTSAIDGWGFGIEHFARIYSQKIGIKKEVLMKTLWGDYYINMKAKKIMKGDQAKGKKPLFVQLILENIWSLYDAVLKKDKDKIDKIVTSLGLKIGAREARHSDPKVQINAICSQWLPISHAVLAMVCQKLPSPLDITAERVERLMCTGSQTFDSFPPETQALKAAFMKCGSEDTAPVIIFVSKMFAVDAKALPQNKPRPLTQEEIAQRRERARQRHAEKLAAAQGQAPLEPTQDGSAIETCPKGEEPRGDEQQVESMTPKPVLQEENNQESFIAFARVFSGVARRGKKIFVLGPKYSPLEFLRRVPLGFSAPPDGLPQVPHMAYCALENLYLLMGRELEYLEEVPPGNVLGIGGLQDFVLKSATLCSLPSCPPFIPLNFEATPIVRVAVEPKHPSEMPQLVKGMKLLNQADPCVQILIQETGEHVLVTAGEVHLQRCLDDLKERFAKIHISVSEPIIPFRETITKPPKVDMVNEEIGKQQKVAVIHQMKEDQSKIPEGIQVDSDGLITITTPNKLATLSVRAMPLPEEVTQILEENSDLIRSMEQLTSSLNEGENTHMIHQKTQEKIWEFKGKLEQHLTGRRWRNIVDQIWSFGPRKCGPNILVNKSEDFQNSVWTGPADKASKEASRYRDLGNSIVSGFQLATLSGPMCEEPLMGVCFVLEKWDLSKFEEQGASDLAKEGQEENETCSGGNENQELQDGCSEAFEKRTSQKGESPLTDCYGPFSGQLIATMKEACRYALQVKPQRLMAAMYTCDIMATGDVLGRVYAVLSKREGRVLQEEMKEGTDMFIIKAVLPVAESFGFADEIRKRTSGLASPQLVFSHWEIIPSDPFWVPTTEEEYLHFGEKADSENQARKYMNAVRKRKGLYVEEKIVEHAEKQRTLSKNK
UniProt Q5VUJ9: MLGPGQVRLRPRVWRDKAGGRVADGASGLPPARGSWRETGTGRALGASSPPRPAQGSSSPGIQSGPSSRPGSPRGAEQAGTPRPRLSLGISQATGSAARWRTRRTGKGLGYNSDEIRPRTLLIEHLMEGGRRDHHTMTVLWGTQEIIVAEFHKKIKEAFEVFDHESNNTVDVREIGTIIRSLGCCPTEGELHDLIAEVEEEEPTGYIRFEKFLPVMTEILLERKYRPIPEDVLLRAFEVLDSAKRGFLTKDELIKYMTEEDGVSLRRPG
UniProt Q05BV3: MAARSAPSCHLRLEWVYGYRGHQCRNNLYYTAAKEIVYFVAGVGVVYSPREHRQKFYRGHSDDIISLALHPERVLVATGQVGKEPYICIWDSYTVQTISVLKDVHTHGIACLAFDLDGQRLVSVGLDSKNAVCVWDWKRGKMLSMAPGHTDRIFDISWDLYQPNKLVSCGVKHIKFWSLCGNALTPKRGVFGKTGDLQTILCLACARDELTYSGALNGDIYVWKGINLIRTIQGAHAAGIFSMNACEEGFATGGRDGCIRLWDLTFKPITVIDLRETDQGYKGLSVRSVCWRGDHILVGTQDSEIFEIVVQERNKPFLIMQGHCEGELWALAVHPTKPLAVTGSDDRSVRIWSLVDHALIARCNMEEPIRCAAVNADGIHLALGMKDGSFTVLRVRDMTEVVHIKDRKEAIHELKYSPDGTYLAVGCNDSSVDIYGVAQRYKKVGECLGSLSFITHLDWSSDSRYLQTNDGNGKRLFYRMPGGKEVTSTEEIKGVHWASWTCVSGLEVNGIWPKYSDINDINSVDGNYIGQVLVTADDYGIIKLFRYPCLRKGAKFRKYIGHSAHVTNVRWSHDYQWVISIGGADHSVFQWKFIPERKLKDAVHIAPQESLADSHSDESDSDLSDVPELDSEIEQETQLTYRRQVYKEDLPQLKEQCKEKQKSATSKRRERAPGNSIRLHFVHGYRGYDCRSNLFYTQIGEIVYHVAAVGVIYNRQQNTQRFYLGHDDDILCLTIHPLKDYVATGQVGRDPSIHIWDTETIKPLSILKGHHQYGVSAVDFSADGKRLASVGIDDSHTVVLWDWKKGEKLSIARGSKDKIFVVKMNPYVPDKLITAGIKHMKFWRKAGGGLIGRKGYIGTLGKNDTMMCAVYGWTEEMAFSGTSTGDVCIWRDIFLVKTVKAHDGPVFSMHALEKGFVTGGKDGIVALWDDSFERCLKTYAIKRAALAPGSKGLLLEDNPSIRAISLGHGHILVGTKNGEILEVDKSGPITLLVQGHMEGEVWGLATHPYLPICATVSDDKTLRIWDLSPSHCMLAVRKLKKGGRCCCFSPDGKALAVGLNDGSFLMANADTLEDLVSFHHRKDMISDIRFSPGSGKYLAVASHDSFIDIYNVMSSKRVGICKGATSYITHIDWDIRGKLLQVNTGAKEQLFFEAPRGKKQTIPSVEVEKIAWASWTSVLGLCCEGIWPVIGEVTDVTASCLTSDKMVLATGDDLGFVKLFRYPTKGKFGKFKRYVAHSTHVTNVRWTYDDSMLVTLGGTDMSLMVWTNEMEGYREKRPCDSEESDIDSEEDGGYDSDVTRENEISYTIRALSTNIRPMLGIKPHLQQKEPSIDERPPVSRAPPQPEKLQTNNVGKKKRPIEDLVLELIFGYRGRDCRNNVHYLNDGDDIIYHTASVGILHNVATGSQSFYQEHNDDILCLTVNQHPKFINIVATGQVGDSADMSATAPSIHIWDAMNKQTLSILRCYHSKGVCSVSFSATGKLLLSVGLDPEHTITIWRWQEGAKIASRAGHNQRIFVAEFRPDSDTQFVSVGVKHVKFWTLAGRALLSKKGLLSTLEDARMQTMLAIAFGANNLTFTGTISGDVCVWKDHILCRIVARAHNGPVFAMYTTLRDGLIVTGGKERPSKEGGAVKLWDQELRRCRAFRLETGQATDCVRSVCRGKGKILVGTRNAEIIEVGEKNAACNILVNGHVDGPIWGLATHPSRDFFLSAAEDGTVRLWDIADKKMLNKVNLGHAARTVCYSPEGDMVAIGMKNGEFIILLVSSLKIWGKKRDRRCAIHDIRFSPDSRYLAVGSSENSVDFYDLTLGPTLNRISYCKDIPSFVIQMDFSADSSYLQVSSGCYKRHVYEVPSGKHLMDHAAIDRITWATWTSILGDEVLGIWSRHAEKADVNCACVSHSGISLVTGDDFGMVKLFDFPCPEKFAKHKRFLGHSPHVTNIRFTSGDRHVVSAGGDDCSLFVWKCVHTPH

This is one part of the list.

Compound in the assay: CC(C)(C)Cn1c(N)nc2ccc(-c3[nH]c(C(C)(C)C)nc3-c3ccc(F)cc3)nc21 [ralimetinib]
In words: log2 fold change, soluble protein after heating vs DMSO (PISA); higher = thermal stabilisation; K562 cells, 10 uM, 30 min; active = over 0.2 and 3.5 SD of the protein, either way, in both replicates (recomputed). Summed up: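 K562 cells at 2×10^6 cells/mL were treated for 30 min with 10 μM compound, and aliquots were heated for 3 min over 48°C-58°C before pooling. Extraction used PBS with 0.5% NP-40 at 4°C, and soluble protein was the supernatant after 21,000xg for 90 min, measured by TMTpro 16plex LC-MS/MS with channel sums equalised. Thermal stability values, relative to control samples and from duplicates, are log2 fold changes.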
EIF4G3 isoform 3 (UniProt O43432): the log2 fold change is inactive: -0.003.

As for EEF1AKNMT (UniProt Q8N6R0), the log2 fold change is inactive: 0.141. As for EIF2AK1 (UniProt Q9BQI3), the figure is inactive: -0.011; as for EED, A0A5F9ZI63, inactive: 0.042; as for EIF1B (UniProt O60739), inactive: 0.027.

Turning to EOGT (UniProt Q5NDL2), the log2 fold change is inactive: -0.036.

For EIF2AK2 (UniProt P19525), the log2 fold change was inactive: 0.191.

For ELOVL1 (UniProt Q9BW60), the log2 fold change is inactive: 0.029. As for EIF2S3 (UniProt P41091), the figure is inactive: 0.061. The same measure for EGR1 (UniProt P18146): inactive: 0.042; for ELL (UniProt P55199): inactive: 0.183; for EEF1G isoform 2 (UniProt P26641): inactive: 0.059. Take EIF4E2 (UniProt O60573): the log2 fold change was inactive: 0.012. Turning to EFCAB14 (UniProt O75071), the log2 fold change is inactive: 0.135. For the target EGLN1 (UniProt Q9GZT9), the log2 fold change was inactive: -0.034. The same measure for ENTPD6 (UniProt O75354): inactive: -0.01. As for EFEMP1 (UniProt Q12805), the figure is inactive: -0.002; as for EFL1 (UniProt Q7Z2Z2), inactive: -0.004. With EFCAB2 (UniProt Q5VUJ9), the log2 fold change was inactive: -0.362. The same measure for EPB41, A0A2R8Y6D0: inactive: -0.003.

Take EML5 isoform 5 (UniProt Q05BV3): the log2 fold change was inactive: -0.076. The same measure for ELMO1 (UniProt Q92556): inactive: 0.069. In the case of ENPP3 (UniProt O14638), the log2 fold change was inactive: 0.013.
